Experimental findings from patent US8987304B2, “Antituberculous composition comprising oxazole compounds” (priority 2005, dated 2015) are described below.

The series addresses T1, CYP2B6 (Homo sapiens, UniProt P20813).
T1 sequence (P20813 1-491): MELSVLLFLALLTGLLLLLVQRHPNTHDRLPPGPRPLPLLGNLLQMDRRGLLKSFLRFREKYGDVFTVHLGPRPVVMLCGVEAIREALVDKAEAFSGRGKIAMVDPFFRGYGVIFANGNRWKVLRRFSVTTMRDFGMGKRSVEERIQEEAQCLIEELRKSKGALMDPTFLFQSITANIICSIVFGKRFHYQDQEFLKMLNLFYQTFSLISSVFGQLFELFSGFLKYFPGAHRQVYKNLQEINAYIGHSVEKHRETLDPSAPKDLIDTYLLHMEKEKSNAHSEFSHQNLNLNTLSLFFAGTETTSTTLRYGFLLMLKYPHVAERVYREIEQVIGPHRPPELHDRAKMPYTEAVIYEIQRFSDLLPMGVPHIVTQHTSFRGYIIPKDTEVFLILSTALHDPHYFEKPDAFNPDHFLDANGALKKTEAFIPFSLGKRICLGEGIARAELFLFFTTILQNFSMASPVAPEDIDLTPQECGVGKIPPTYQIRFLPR
In words: 7-benzyloxyresorufin debenzylation activity in human hepatic microsome. Conditions: liver microsomes, pH 7.4, probe 7-benzyloxyresorufin ([…]). The procedure: 4-2. Effect of the Oxazole Compound (I) on the Enzymatic Activity of Each Molecular Species of Cytochrome P450 (CYP)
Basic reaction composition (0.5 ml) was consisting of microsome protein 0.2-1 mg/ml, 100 mM phosphate buffer (pH 7.4), 0.1 mM EDTA, NADPH generation system (2.5 mM β-NADP, 25 mM glucose-6-phosphate, 2 units glucose-6-phosphate dehydrogenase and 10 mM magnesium chloride), with or without each substrate and inhibitor, and the reaction was performed at 37° C. for 10-60 minutes. Each substrate and its concentration used were 7-ethoxyresorufln (0.5 μM), coumarin (2 μM), 7-benzyloxyresorufin (1.5 μM), tolbutamide (400 μM), S-mephenyloin (100 μM), bufuralol (20 μM), chlorzoxazone (100 μM), testosterone (100 μM) and nifedipine (50 μM).
Generated products after the metabolic response were measured by using high performance liquid chromatography after extraction.

Compound `Cc1ccccc1C(OCCN(C)C)c1ccccc1` (stereo not shown) [orphenadrine, reference compound] returned an activity at 1000 μM of 72%.
